Results from cells or extracts need not show a direct contact. For some assays here: Construct, isoform or probe ends are uncertain for at least one entry.

Protein sequences, listed by entry. Tags and fused reporters are not part of them. Residues count along the entry.
UniProt P19338, 2-710: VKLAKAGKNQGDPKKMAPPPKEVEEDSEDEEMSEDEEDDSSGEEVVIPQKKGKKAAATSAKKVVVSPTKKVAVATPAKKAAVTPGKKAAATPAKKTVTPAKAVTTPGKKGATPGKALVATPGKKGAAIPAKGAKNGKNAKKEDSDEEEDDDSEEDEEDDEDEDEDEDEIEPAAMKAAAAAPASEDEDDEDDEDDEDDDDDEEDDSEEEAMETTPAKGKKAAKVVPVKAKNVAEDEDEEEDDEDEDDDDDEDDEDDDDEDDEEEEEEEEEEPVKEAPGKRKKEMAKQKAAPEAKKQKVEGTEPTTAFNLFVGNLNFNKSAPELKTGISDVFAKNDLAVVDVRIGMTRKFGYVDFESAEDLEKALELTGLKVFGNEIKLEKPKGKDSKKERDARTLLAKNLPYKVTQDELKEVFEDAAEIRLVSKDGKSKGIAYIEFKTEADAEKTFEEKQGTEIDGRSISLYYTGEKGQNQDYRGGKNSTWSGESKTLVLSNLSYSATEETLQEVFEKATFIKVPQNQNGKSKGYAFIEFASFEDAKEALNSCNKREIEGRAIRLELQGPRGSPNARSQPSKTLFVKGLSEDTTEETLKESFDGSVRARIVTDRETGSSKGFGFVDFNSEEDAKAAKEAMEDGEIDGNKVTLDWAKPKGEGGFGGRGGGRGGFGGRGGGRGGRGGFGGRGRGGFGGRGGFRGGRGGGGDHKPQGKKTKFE

One series has as its target nucleolin (cell surface) (UniProt P19338). Nature of the series: binding assay. The settings on record: stated specificity for nucleolin and internalization of complex; no data shown; protein on the cell surface; protein details: endogenous, tumor cells; single-stranded DNA.
Series [1] concerns the target nucleolin (106 kDa GRO-binding protein) (Homo sapiens) (UniProt P19338). Nature of the series: binding assay. The following applies: 3'-propylamino; Southwestern, single 106 kDa band; HEPES pH 7.9, 4 mM KCl, 3 mM MgCl2, 4 C; also EMSA and UV crosslink; protein in an extract; label: 5'-32P when used as probe; single-stranded DNA. Background: A gel shift assay detects complexes by their altered migration in electrophoresis.

Consider GGTGGTGGTGGTTGTGGTGGTGGTGG [GRO26B], for which the binding result with nucleolin (cell surface) is on record as “binds”.
In the case of TTTGGTGGTGGTGGTTGTGGTGGTGGTGG [GRO29A], in series [1], the binding result is “binds”.

These data come from patent publication US20110178161.
